Assay results published in patent publication US20210023523A1 (The Governors of the University of Alberta, priority 2013, published 2021).
Where a sequence shows no end group, the ends are not given.

Assay: general procedure: Fmoc SPOT synthesis; Teflon-patterned paper (SPOT)
Conditions: whole synthesis

Sequence | difficulty met
GKKQRFRHRNRK | low

Same assay, conditions: whole synthesis, estimated purity (LC-MS)

Sequence | crude LC-MS purity [%]
MHRMPSFLPTTL | 59
TVKHRPDALHPQ | 67
PQVTRGDVFTMP | 18
GWQPPARARIG | 82
LTGKNFPMFHRN | 31
FHRRIKAGRGDS | 22
LTTAPKLPKVTR | 56
